PubChem BioAssay AID652272 | Drosophila RNAi Screening Center – 2013
Screen: 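Genome-wide knock-down search for components of Hedgehog signalling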 (primary screen). Cells: Drosophila clone 8 (Cl8) cells. Knock-down reagent: long dsRNA against Drosophila genes. Detection: 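Firefly light from a Hedgehog-responsive ptc promoter reporter and Renilla reference light, both read on a plate reader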. Scale: firefly Hh reporter signal: higher = more ptc reporter light; Renilla reference signal: higher = more Renilla control light. Rule for the call: 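Hit when the z-score averaged over two replicates is under -2 or over +3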. Calls: active = hit: reporter lowered or raised; inactive = not a hit.
In all, the deposit lists about 21,000 reagents; this is an unselected part of those with a known target gene and a result. In the full data, 503 (2.4%) were called active. 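Raw plate light values, not normalised; calls rest on replicate z-scores that were not deposited; hits include reporter decreases as well as increases.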 Unmarked entries are inactive. Reagents against one gene are numbered here. Names joined by + are all predicted targets of the reagent. The record does not give: the amount of reagent, the time to read-out.

firefly Hh reporter signal, replicate 1	firefly Hh reporter signal, replicate 2	firefly Hh reporter signal, replicate 3	Renilla reference signal, replicate 1	Renilla reference signal, replicate 2	gene	dsRNA no.
1.31e5	2.10e5		4000	9154	CG32240	1
78173	53808		1632	4368	Ak6 (Adenylate kinase 6)	1
1.12e5	61355		3082	5385	CG8860	1
1.40e5	71989		3595	6112	CG12824	1
97529	75333		1611	6262	CG17224	1
99908	59443		2759	5559	Acp32CD (Accessory gland protein 32CD)	1
6.85e5	95857		36118	3514	veli	1
1.29e5	79169		5799	3444	Non3 (Novel nucleolar protein 3)	1
1.04e5	81764		1652	5797	Lpt (Lost PHDs of trr)	1
1.04e5	58778		4042	2087	Lpt (Lost PHDs of trr)	2
1.01e5	66009		4644	3067	Ebp (Ejaculatory bulb protein)	1
85845	2.57e5		2235	9943	CG34001	1
1.04e5	93712		5120	4427	Nt5a (5' nucleotidase A)	1
5.22e5	1.34e5		25334	2912	CG32643	1
66067	46840		3019	2045	GlcAT-S (Glucuronyltransferase S)	1
1.09e5	75670		2522	2092	CG2116	1
59340	1.83e5		1637	7938	CG42299 + CG42300	1
72184	1.65e5		2260	6597	CG42299 + CG42300	2
1.35e5	1.15e5		3287	3175	Eno (Enolase)	1
1.61e5	1.78e5		4048	8125	CR42785 (pseudo)	1
1.11e5	2.97e5		3360	11686	CG15760	1
87298	1.09e5		1809	2649	CG5611	1
2.05e5			5175		CG34039	1
1.04e5	55824		4034	1991	CG5498	1
1.11e5	2.13e5		3019	8496	Lipt1 (Lipoyltransferase 1)	1
55888	94304		2082	3581	CG9368	1
81304	2.34e5		2123	7456	Rubicon	1
1.23e5	4.56e5	1.17e5	3018	22851	CG3726	1
80474	72667		2848	1924	CG14883	1
77525	52395		2040	4699	Mt2 (Methyltransferase 2)	1
1.01e5	40518		4330	1677	Paip1 (Poly(A) binding protein interacting protein 1)	1
91088	50820		2313	4024	Tsp42Eh (Tetraspanin 42Eh)	1
58593	3.62e5	30822	1943	24005	Tom70 (Translocase of outer membrane 70)	1
95845	49496		2352	3735	tej (tejas)	1
1.52e5	50069		4027	979	CG18605	1
1.06e5	72807		3911	2660	Ipk1 (Inositol phosphate kinase 1)	1
1.02e5	61873		2517	5521	Ipk1 (Inositol phosphate kinase 1)	2
1.08e5	45699		2717	4346	Ipk1 (Inositol phosphate kinase 1)	3
81878	1.38e5		3572	6167	mei-38 (meiotic 38)	1
53811	1.84e5		2307	6673	CG42264	1
69904	1.80e5		2844	6054	CG42264	2
85195	78450		1898	6379	Phk-3 (Pherokine 3)	1
59205	26357		1723	2848	CG31688 + CG31687	1
50725	1.05e5		1325	4976	CG6048	1
89718	56515		2089	5348	Cyt-c-d (Cytochrome c distal)	1
1.48e5	1.15e5		6240	4476	Cyp28d1 (Cytochrome P450 28d1)	1
1.92e5	7.85e5	1.46e5	6508	47228	polo	1
68981	97401		2051	2804	cv-c (crossveinless c)	1
1.15e5	1.37e5		3971	4061	cv-c (crossveinless c)	2
55222	57269		2281	2012	cv-c (crossveinless c)	3
1.03e5	1.06e5		3765	3053	cv-c (crossveinless c)	4
1.20e5	99556		4728	3184	cv-c (crossveinless c)	5
73961	99472		2329	2800	cv-c (crossveinless c)	6
1.06e5	47316		3312	1760	CTCF	1
68162	44896		3381	2071	Ppt2 (Palmitoyl-protein Thioesterase 2)	1
3.30e5	1.12e5		17568	2128	CG32727	1
1.19e5	72762		4067	3267	crol (crooked legs)	1

Part of the list above, reformatted.
Cyp28d1 (Cytochrome P450 28d1) — firefly Hh reporter signal, replicate 1: 1.48e5; firefly Hh reporter signal, replicate 2: 1.15e5; Renilla reference signal, replicate 1: 6240; Renilla reference signal, replicate 2: 4476
polo — firefly Hh reporter signal, replicate 1: 1.92e5; firefly Hh reporter signal, replicate 2: 7.85e5; firefly Hh reporter signal, replicate 3: 1.46e5; Renilla reference signal, replicate 1: 6508; Renilla reference signal, replicate 2: 47228
cv-c (crossveinless c) #1 — firefly Hh reporter signal, replicate 1: 68981; firefly Hh reporter signal, replicate 2: 97401; Renilla reference signal, replicate 1: 2051; Renilla reference signal, replicate 2: 2804
cv-c (crossveinless c) #2 — firefly Hh reporter signal, replicate 1: 1.15e5; firefly Hh reporter signal, replicate 2: 1.37e5; Renilla reference signal, replicate 1: 3971; Renilla reference signal, replicate 2: 4061
cv-c (crossveinless c) #3 — firefly Hh reporter signal, replicate 1: 55222; firefly Hh reporter signal, replicate 2: 57269; Renilla reference signal, replicate 1: 2281; Renilla reference signal, replicate 2: 2012
